Results on one molecule are retold here after patent US20110230374A1 (UNIVERSITY OF MARYLAND BALTIMORE, published 2011).

No constants are given. Whether binding was seen depends on the method and setting. Some results given as binding are weak or reduced against the parent protein; the word gives no strength.

Experiment [1] concerns the target T1, hen egg lysozyme (hen, UniProt P00698 19-147).
T1 construct: Soluble monovalent antigen; Biotinylated for YSD titration; unlabelled analyte in SPR and titrant in ITC; also called HEL
The experiment can be described thus: SPR, biotin-VLRB.CTMut.5 captured on NeutrAvidin, 2-fold HEL dilutions 7.66-0.00299 nM injected. On the technique in general: In SPR one partner is held on a chip, and binding of the other changes the refractive index at the surface.

Experiment [2] concerns the target T1, hen egg lysozyme. The experiment can be described thus: yeast surface display flow cytometry: biotinylated HEL + SA-PE against anti-HA Alexa 488. Background: In flow cytometry, cells or beads pass a laser one at a time.

B1: VLRB.CTMut.5 (other)
chain: ACPSQCSCDQTTVYCHNRRLTSVPTGIPTTTQVLYLYDNQITKLEPGVFDRLTKLTHLSLGYNQLKSVPRGAFDNLKSLTHIWLLNNPWDCQCTDILYLKNWIVQHASIVNPHTHGGVDNVKCSGTNTPVRAVTEASTSPSKC
Take B1: the binding result with hen egg lysozyme [1] and in the experiment with hen egg lysozyme [2] was “binds” in each case.
